Data on one substance can be found in paper PMC4753506.

The chains behind the UniProt entries cited, without tags or fusion partners. Where a name states a change or a piece, a line headed by the entry shows the natural chain unless it says otherwise.
UniProt P20263: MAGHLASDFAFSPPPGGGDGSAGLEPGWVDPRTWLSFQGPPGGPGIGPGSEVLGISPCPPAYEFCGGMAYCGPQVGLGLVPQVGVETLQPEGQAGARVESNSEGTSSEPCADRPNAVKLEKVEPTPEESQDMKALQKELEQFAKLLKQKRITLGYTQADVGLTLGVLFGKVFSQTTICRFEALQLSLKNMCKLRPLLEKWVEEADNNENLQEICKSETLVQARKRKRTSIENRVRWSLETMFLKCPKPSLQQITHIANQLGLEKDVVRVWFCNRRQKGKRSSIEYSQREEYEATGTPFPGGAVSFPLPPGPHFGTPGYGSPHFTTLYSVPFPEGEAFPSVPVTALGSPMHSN
UniProt P48432: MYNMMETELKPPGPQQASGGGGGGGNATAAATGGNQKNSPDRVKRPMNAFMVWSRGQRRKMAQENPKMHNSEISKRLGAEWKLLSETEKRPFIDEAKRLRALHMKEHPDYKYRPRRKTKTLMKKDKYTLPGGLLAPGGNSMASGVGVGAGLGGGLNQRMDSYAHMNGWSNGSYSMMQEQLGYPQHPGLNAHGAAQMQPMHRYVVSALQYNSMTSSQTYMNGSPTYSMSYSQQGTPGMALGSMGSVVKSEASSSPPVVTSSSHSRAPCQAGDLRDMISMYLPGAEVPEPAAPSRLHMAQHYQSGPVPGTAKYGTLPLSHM

Results are given in words; binding and its absence hold for the method and conditions named. In cells and extracts the contact can be indirect. Some entries that bind do so weakly or less than the wild type.

The target of this test is murine Oct4 Q174A, Flag-tagged (mouse) (UniProt P20263). As to the kind of experiment: co-IP; HEK293 cells co-transfected with Sox2-Myc and Flag-tagged Oct4 WT or Q174A (or EGFP-Flag); lysis in 50 mM Tris-HCl pH 7.5, 150 mM NaCl, 1 mM EDTA, 10% glycerol, 0.5% Triton X-100; anti-Flag beads 4-6 h; washes with 300 mM NaCl; Western blot.

For Sox2-Myc (from UniProt P48432 1-319), the binding result is on record as “binds”.
